Results on one substance are retold here after PMC6525465.

Sequences of proteins named here, by UniProt entry; tags and fusion partners are left off.
UniProt P14618: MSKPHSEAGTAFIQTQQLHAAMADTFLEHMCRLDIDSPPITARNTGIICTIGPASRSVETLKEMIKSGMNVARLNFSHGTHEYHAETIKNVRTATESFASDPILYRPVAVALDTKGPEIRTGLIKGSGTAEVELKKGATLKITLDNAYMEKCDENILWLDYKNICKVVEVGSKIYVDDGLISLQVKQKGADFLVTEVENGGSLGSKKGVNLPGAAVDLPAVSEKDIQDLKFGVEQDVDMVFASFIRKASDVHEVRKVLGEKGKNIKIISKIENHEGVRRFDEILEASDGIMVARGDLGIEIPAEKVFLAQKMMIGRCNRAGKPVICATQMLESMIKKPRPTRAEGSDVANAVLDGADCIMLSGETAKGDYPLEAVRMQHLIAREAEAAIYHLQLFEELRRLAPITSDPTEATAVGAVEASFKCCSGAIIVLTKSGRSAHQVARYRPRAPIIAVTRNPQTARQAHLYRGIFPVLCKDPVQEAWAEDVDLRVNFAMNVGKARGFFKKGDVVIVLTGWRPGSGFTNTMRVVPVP
UniProt Q16665: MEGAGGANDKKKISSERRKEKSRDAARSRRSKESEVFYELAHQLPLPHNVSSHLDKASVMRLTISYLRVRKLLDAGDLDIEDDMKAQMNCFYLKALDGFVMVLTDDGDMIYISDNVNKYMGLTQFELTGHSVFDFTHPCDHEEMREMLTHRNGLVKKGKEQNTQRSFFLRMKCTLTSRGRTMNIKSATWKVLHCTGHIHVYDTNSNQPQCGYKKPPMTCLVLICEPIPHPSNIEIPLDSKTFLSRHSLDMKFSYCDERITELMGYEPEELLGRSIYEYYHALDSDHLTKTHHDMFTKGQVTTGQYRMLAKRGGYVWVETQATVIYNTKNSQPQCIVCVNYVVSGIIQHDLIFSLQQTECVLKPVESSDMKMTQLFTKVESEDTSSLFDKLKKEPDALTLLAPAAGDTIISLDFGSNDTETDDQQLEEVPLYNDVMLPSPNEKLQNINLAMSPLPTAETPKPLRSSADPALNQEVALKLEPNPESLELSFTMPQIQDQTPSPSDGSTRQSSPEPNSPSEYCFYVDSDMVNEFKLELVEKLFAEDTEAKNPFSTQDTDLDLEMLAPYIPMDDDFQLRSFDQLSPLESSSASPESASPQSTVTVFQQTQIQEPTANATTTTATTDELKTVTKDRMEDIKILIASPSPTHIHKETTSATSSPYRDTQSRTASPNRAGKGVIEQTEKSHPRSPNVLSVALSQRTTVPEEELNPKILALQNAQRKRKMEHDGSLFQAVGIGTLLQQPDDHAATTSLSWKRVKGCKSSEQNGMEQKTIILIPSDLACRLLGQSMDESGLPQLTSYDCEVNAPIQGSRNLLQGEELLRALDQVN

These are yes or no findings as the source states them, for the method shown. Binding seen in cells or lysates may run through a third protein. Some entries that bind do so weakly or less than the wild type.

The test addresses pyruvate kinase M2 (human (endogenous in HCC-LM3 and SMMC-7721)) (UniProt P14618). As to the kind of experiment: co-IP; HCC cell lines, untreated (NC) or treated with 80 μM PB2 for 24 h; lysed at 4 °C in IP Lysis/Wash Buffer with protease inhibitors; Pierce Co-immunoprecipitation Kit; PKM2 as bait, blots for HIF-1α and HSP90.

Take “hypoxia-inducible factor 1α (from UniProt Q16665 1-826)”: the binding result is reported as “binds”.
